The values below come from patent EP1377165B1.

By UniProt entry, the sequences of proteins in these tests, tags left out.
UniProt Q99816: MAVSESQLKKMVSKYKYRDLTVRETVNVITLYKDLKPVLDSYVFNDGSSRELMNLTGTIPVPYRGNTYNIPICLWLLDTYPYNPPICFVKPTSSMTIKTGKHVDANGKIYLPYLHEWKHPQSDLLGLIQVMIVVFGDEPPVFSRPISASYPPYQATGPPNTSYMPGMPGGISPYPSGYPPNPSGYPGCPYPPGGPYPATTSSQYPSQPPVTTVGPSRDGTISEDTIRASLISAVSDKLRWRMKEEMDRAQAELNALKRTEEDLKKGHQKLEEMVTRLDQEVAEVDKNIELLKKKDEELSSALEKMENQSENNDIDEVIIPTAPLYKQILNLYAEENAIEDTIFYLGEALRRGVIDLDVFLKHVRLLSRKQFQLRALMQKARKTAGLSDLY

Results are given in words; binding and its absence hold for the method and conditions named. Some binding calls cover weakened binding; strength is not graded here.

The target of this assay is T1, growth arrest-specific protein GAS7b (UniProt O60861).
T1 sequence (looked up): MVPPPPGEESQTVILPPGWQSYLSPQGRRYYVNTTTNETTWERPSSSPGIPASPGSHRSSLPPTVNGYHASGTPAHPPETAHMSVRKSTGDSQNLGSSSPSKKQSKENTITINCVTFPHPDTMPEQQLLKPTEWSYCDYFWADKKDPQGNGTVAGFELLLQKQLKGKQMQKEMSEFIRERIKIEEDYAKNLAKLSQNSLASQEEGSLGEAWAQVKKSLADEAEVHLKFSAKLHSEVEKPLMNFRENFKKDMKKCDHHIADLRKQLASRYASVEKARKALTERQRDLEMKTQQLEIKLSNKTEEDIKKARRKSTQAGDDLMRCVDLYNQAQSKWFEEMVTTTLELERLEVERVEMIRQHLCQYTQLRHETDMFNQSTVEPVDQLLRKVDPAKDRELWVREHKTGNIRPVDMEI
Briefly: yeast two-hybrid library search.

As for “tumor susceptibility gene 101 protein (Tsg101) used to search a spleen library (from UniProt Q99816 1-390)”, the binding entry is recorded as “binds”.
